At least one read-out could not be matched to a standard name with certainty.
Test system: gastric mucosa lesions induced by absolute ethanol
Experiment: Gastroprotective activity, test with absolute ethanol (gastric mucosa erosions)
Type: in vivo, rat
Conditions: ED50 of gastric acid inhibition (Shay) related to ED50 of inhibition of gastric erosion
Method: Rats of both sexes weighing 200 to 250 g, each previously starved for 24 hours, were used in this experiment. The lesions of gastric mucosa were induced by the oral administration of absolute ethanol in a dose of 1 ml/animal. After one hour following the administration, the animals were killed by an overdose of ether, the stomach was excised and the alterations of gastric mucosa were examined. The lengths of the erosions were measured and summarized (expressed in mm) for each stomach to obtain the erosion index by calculating the average value of the group. The inhibition was calculated in percentage by comparing the value of the group treated with ethanol to that of the control group treated only with the vehicle. Various doses of the compounds to be tested were administered, perorally, in a volume of 5 ml/kg using a pretreatment time of 60 minutes. Eight rats were used for each dose. /A. Robert, Gastroenterology 77, 761-767 (1979)/.
^x Relative activity = ED50 value of the gastric acid inhibition
related to the ED50 value of the inhibition of the gastric erosion.

SMILES: CN1CCN(CC(=O)N2c3ccccc3C(=O)Nc3cccnc32)CC1 [pirenzepine, reference compound]
- Relative activity related to the inhibition of the free acid: 0.4

— patent US5597822A, “Pharmaceutical compositions for the prevention and/or treatment a gastrointestinal diseases” (Egis Pharmaceutical, priority 1993, dated 1997)
